Results on 20 substances are retold here after patent US10633448B2 (PIERRE FABRE MEDICAMENT, priority 2014, dated 2020).

This data set is described as follows: general procedure: solution-phase peptide synthesis; DEPC/DIEA; HATU/DIEA. The conditions noted are these: for conjugation yield: conjugation step.
[1] abbreviates: late stage modification step, 254 nm, trifluoroacetic acid.
The mark [2] stands for this setting: late stage modification step, trifluoroacetic acid.
The mark [3] stands for this setting: coupling step, trifluoroacetic acid.
[4] abbreviates: late stage modification step, 210 nm, trifluoroacetic acid.

Turning to “methyl ((2R,3R)-3-((S)-1-((3R,4S,5S)-4-((S)-2-((S)-2-((4-((((4-((S)-2-((S)-2-(6-(2,5-dioxo-2,5-dihydro-1H-pyrrol-1-yl)hexanamido)-3-methylbutanamido)-5-ureidopentanamido)benzyl)oxy)carbonyl)(methyl)amino)phenethyl)(methyl)amino)-3-methylbutanamido)-N,3-dimethylbutanamido)-3-methoxy-5-methylheptanoyl)pyrrolidin-2-yl)-3-methoxy-2-methylpropanoyl)-L-phenylalaninate 2,2,2-trifluoroacetate”, the conjugation yield (trifluoroacetic acid) was 70%. Still for that read-out and setting: next, “methyl ((2R,3R)-3-((S)-1-((3R,4S,5S)-4-((S)-2-((S)-2-((4-((S)-2-((S)-2-(6-(2,5-dioxo-2,5-dihydro-1H-pyrrol-1-yl)hexanamido)-3-methylbutanamido)-5-ureidopentanamido)phenethyl)(methyl)amino)-3-methylbutanamido)-N,3-dimethylbutanamido)-3-methoxy-5-methylheptanoyl)pyrrolidin-2-yl)-3-methoxy-2-methylpropanoyl)-L-phenylalaninate 2,2,2-trifluoroacetate”: 13%; “methyl ((2R,3R)-3-((S)-1-((3R,4S,5S)-4-((S)-2-((S)-2-((3-((((4-((S)-2-((S)-2-(6-(2,5-dioxo-2,5-dihydro-1H-pyrrol-1-yl)hexanamido)-3-methylbutanamido)-5-ureidopentanamido)benzyl)oxy)carbonyl)amino)benzyl)(methyl)amino)-3-methylbutanamido)-N,3-dimethylbutanamido)-3-methoxy-5-methylheptanoyl)pyrrolidin-2-yl)-3-methoxy-2-methylpropanoyl)-L-phenylalaninate 2,2,2-trifluoroacetate”: 48%.

“methyl (S)-2-((2R,3R)-3-((S)-1-((3R,4S,5S)-4-((S)-2-((S)-2-((3-aminopropyl)(methyl)amino)-3-methylbutanamido)-N,3-dimethylbutanamido)-3-methoxy-5-methylheptanoyl)pyrrolidin-2-yl)-3-methoxy-2-methylpropanamido)-3-phenylpropanoate”: for the setting “coupling step, 210 nm, trifluoroacetic acid”, the “final HPLC purity” value was 91.5%. Besides, the step yield (coupling step, over 2 steps from 3D, trifluoroacetic acid) was 26%, yield in 2 steps. As to “(S)—N-((3R,4S,5S)-3-methoxy-1-((S)-2-((1R,2R)-1-methoxy-2-methyl-3-oxo-3-(((S)-2-phenyl-1-(thiazol-2-yl)ethyl)amino)propyl)pyrrolidin-1-yl)-5-methyl-1-oxoheptan-4-yl)-N,3-dimethyl-2-((S)-3-methyl-2-(methyl(4-(methylamino)phenethyl)amino) butanamido)butanamide”, the “final HPLC purity” value under setting [1] was determined as 93.68%. Further, under setting [2], the step yield amounted to 39%.

As to “Methyl ((2R,3R)-3-((S)-1-((3R,4S,5S)-4-((S)-2-((S)-2-((4-aminophenethyl)(methyl)amino)-3-methylbutanamido)-N,3-dimethylbutanamido)-3-methoxy-5-methylheptanoyl)pyrrolidin-2-yl)-3-methoxy-2-methylpropanoyl)-L-phenylalaninate”, the “final HPLC purity” value (coupling step, 220 nm, trifluoroacetic acid) is on record as 95.3%. The same substance gave a step yield under setting [3] of 45%.

For “(S)-2-((S)-2-((4-aminobenzyl)(methyl)amino)-3-methylbutanamido)-N-((3R,4S,5S)-3-methoxy-1-((S)-2-((1R,2R)-1-methoxy-2-methyl-3-oxo-3-(((S)-2-phenyl-1-(thiazol-2-yl)ethyl)amino)propyl)pyrrolidin-1-yl)-5-methyl-1-oxoheptan-4-yl)-N,3-dimethylbutanamide, trifluoroacetic acid”, the “crude purity (method not given)” value (late stage modification step, LC/MS/UV (Atlantis T3 column, 254 nm), trifluoroacetic acid) was 93.2%. In turn, “methyl ((2R,3R)-3-((S)-1-((3R,4S,5S)-4-((S)-2-((S)-2-((3-(6-(2,5-dioxo-2,5-dihydro-1H-pyrrol-1-yl)hexanamido)benzyl)(methyl)amino)-3-methylbutanamido)-N,3-dimethylbutanamido)-3-methoxy-5-methylheptanoyl)pyrrolidin-2-yl)-3-methoxy-2-methylpropanoyl)-L-phenylalaninate 2,2,2-trifluoroacetate” came in with a conjugation yield (trifluoroacetic acid) of 50%. With “methyl (S)-2-((2R,3R)-3-((S)-1-((3R,4S,5S)-4-((S)—N,3-dimethyl-2-((S)-3-methyl-2-(methyl(4-(methylamino)phenethyl)amino)butanamido)butanamido)-3-methoxy-5-methylheptanoyl)pyrrolidin-2-yl)-3-methoxy-2-methylpropanamido)-3-phenylpropanoate”, the “final HPLC purity” value (coupling step, 254 nm, trifluoroacetic acid) is on record as 90.6%. For the same substance, the step yield (coupling step, two steps from 3D, trifluoroacetic acid) was determined as 7%. With “N—((S)-1-(((S)-1-((4-((3R,4S,7S,10S)-4-((S)-sec-butyl)-7,10-diisopropyl-3-(2-((S)-2-((1R,2R)-1-methoxy-2-methyl-3-oxo-3-(((S)-2-phenyl-1-(thiazol-2-yl)ethyl)amino)propyl)pyrrolidin-1-yl)-2-oxoethyl)-5,11-dimethyl-6,9-dioxo-2-oxa-5,8,11-triazatridecan-13-yl)phenyl)amino)-1-oxo-5-ureidopentan-2-yl)amino)-3-methyl-1-oxobutan-2-yl)-6-(2,5-dioxo-2,5-dihydro-1H-pyrrol-1-yl)hexanamide 2,2,2-trifluoroacetate”, where the note is “trifluoroacetic acid”, the conjugation yield was 70%. “4-((S)-2-((S)-2-(6-(2,5-dioxo-2,5-dihydro-1H-pyrrol-1-yl)hexanamido)-3-methylbutanamido)-5-ureidopentanamido)benzyl (4-((3R,4S,7S,10S)-4-((S)-sec-butyl)-7,10-diisopropyl-3-(2-((S)-2-((1R,2R)-1-methoxy-2-methyl-3-oxo-3-(((S)-2-phenyl-1-(thiazol-2-yl)ethyl)amino)propyl)pyrrolidin-1-yl)-2-oxoethyl)-5,11-dimethyl-6,9-dioxo-2-oxa-5,8,11-triazatridecan-13-yl)phenyl)(methyl)carbamate 2,2,2-trifluoroacetate” returned a conjugation yield (trifluoroacetic acid) of 54%. Regarding “(S)-2-((S)-2-((3-aminopropyl)(methyl)amino)-3-methylbutanamido)-N-((3R,4S,5S)-3-methoxy-1-((S)-2-((1R,2R)-1-methoxy-2-methyl-3-oxo-3-(((S)-2-phenyl-1-(thiazol-2-yl)ethyl)amino)propyl)pyrrolidin-1-yl)-5-methyl-1-oxoheptan-4-yl)-N,3-dimethylbutanamide, bis trifluoroacetic acid”, the “final HPLC purity” value under setting [1] turned out to be 93.7%. The step yield under setting [2] turned out to be 25%. Under setting [3], “methyl (S)-2-((2R,3R)-3-((S)-1-((3R,4S,5S)-4-((S)-2-((((9H-fluoren-9-yl)methoxy)carbonyl)amino)-N,3-dimethylbutanamido)-3-methoxy-5-methylheptanoyl)pyrrolidin-2-yl)-3-methoxy-2-methyl propanamido)-3-phenylpropanoate” registered a step yield of 34%. As to “methyl ((2R,3R)-3-((S)-1-((3R,4S,5S)-4-((S)-2-((S)-2-((4-(6-(2,5-dioxo-2,5-dihydro-1H-pyrrol-1-yl)-N-methylhexanamido)phenethyl)(methyl)amino)-3-methylbutanamido)-N,3-dimethylbutanamido)-3-methoxy-5-methylheptanoyl)pyrrolidin-2-yl)-3-methoxy-2-methylpropanoyl)-L-phenylalaninate 2,2,2-trifluoroacetate”, the conjugation yield (trifluoroacetic acid) worked out at 16%. The same measure, in the same setting: next, “((2R,3R)-3-((S)-1-((3R,4S,5S)-4-((S)-2-((S)-2-((4-(6-(2,5-dioxo-2,5-dihydro-1H-pyrrol-1-yl)-N-methylhexanamido)phenethyl)(methyl)amino)-3-methylbutanamido)-N,3-dimethylbutanamido)-3-methoxy-5-methylheptanoyl)pyrrolidin-2-yl)-3-methoxy-2-methylpropanoyl)-L-phenylalanine 2,2,2-trifluoroacetate”: 62%. With “methyl (S)-2-((2R,3R)-3-((S)-1-((3R,4S,5S)-4-((S)-2-amino-N,3-dimethylbutanamido)-3-methoxy-5-methylheptanoyl)pyrrolidin-2-yl)-3-methoxy-2-methylpropanamido)-3-phenylpropanoate”, the step yield under setting [2] is listed as 81%. In the case of “((2R,3R)-3-((S)-1-((3R,4S,5S)-4-((S)-2-((S)-2-((4-((S)-2-((S)-2-(6-(2,5-dioxo-2,5-dihydro-1H-pyrrol-1-yl)hexanamido)-3-methylbutanamido)-N-methyl-5-ureidopentanamido)phenethyl)(methyl)amino)-3-methylbutanamido)-N,3-dimethylbutanamido)-3-methoxy-5-methylheptanoyl)pyrrolidin-2-yl)-3-methoxy-2-methylpropanoyl)-L-phenylalanine 2,2,2-trifluoroacetate”, under “trifluoroacetic acid”, the conjugation yield turned out to be 24%. Consider “(S)-2-((S)-2-(((2-aminopyridin-4-yl)methyl)(methyl)amino)-3-methylbutanamido)-N-((3R,4S,5S)-1-((S)-2-((1R,2R)-3-(((1S,2R)-1-hydroxy-1-phenylpropan-2-yl)amino)-1-methoxy-2-methyl-3-oxopropyl)pyrrolidin-1-yl)-3-methoxy-5-methyl-1-oxoheptan-4-yl)-N,3-dimethylbutanamide, trifluoroacetic acid”, for which the “final HPLC purity” value under setting [4] turned out to be 99.2%. Moreover, under “late stage modification step, TFA salt”, the step yield amounted to 6%. For the substance “(S)-2-((2R,3R)-3-((S)-1-((3R,4S,5S)-4-((S)-2-((S)-2-((3-aminobenzyl)(methyl)amino)-3-methylbutanamido)-N,3-dimethylbutanamido)-3-methoxy-5-methylheptanoyl)pyrrolidin-2-yl)-3-methoxy-2-methylpropanamido)-3-phenylpropanoic acid”, the “final HPLC purity” value under setting [4] is 92.5%. Further, the step yield under setting [2] came to 20%. Consider “methyl (S)-2-((2R,3R)-3-((S)-1-((3R,4S,5S)-4-((S)-2-((S)-2-((3-aminobenzyl)(methyl)amino)-3-methylbutanamido)-N,3-dimethylbutanamido)-3-methoxy-5-methylheptanoyl)pyrrolidin-2-yl)-3-methoxy-2-methylpropanamido)-3-phenylpropanoate”, for which, under setting [4], the “final HPLC purity” value came out at 91.1%. Under setting [2], this substance gave a step yield of 19%.
